# According to PubChem BioAssay AID2452 (Broad Institute, 2010):
# Some of the results follow. Potency and affinity values are given separately. The source made no clear call on entries shown without one.
# Test: PubChem AID 2452
# Settings: H4 cells, PrP 5'UTR luciferase reporter translation; at 1.2 µM (top of the series)
compound,measurement,value
Cc1ccc2nc3sc(C(=O)N4CCOCC4)c(N)c3cc2c1,"activity change, negative = inhibition",-29.6%
